Test results as given in article PMC7286909.
These are yes or no findings as the source states them, for the method shown. Binding seen in cells or lysates may run through a third protein. Some results given as binding are weak or reduced against the parent protein; the word gives no strength. For some of these results: Sequences can lack the tags named with a protein.

Protein sequences, listed by entry. Tags and fused reporters are not part of them. Residues count along the entry.
UniProt P11021, residues 19-654: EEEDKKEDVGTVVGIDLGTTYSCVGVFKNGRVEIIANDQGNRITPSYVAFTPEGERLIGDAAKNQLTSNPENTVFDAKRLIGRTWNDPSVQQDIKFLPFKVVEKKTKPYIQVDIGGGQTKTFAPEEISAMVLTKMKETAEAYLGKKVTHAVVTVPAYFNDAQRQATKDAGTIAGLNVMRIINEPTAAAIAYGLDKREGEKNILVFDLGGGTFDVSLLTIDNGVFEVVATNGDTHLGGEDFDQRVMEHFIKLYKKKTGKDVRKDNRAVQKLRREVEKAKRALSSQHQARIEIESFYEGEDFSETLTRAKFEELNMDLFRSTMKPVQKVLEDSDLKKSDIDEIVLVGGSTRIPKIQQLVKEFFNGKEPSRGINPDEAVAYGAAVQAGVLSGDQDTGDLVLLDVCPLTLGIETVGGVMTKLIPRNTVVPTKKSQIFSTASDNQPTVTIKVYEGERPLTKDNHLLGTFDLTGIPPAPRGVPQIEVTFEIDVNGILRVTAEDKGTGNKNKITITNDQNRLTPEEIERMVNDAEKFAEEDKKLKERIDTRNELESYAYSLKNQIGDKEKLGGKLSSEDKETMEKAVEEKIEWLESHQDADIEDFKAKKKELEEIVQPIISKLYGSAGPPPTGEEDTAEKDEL

T1: Flag-tagged SHQ1 (human) (UniProt Q6PI26)
T1 sequence: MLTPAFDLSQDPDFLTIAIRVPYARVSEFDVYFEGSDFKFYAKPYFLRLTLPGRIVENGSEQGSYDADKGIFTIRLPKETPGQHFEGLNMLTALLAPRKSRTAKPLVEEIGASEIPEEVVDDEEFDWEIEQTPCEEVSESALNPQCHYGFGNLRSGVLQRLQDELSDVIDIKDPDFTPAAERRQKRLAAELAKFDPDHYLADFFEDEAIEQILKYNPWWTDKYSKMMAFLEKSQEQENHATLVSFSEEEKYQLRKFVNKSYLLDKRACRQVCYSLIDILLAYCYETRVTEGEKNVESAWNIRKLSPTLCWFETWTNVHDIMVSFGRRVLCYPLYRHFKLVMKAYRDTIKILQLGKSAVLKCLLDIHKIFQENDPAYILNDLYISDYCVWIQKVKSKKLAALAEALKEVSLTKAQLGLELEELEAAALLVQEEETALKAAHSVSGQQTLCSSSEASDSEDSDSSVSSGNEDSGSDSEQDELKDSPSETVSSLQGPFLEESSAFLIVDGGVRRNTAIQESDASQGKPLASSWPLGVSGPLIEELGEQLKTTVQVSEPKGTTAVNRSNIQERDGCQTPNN

B1: Flag-tagged SHQ1 (protein, UniProt Q6PI26 1-577)
chain: T1 sequence
B2: endogenous SHQ1 (protein, UniProt Q6PI26 1-577)
chain: T1 sequence

Assays:
Flag-tagged SHQ1 (human) = target: T1, Flag-tagged SHQ1 (human); experiment: co-IP; HepG2 cells transfected with Flag-SHQ1 alone or with HA-GRP78, 24 h; NP-40 lysis buffer (50 mM Tris-HCl pH 7.6, 120 mM NaCl, 1 mM EDTA, 1% NP40); anti-Flag or anti-HA antibody overnight, protein A/G beads; western blot
HA-tagged GRP78 = HA-tagged GRP78 (UniProt P11021); experiment: as above
[1] = target: endogenous GRP78 (human (endogenous in HepG2)) (UniProt P11021); experiment: co-IP; HepG2 lysate (also SHQ1-knockdown and control HepG2 cells); anti-GRP78 antibody used for immunoprecipitation; western blot of endogenous proteins

Molecule | binding (Flag-tagged SHQ1 (human)) | other results
HA-tagged GRP78 (from UniProt P11021 19-654) | binds | 
endogenous GRP78 (from UniProt P11021 19-654) | binds | 
B1 |  | binding (HA-tagged GRP78): binds
B2 |  | binding [1]: binds
